Test results as given in patent US20090226437A1 (Genentech, published 2009).
Substitutions are numbered along the chain they refer to. Names and notes keep the numbering of the source. No constants are given. Whether binding was seen depends on the method and setting. Some binding calls cover weakened binding; strength is not graded here.

Sequences of proteins named here, by UniProt entry; tags and fusion partners are left off. A change or cut given only in a name is not applied to a line headed by its entry.
UniProt P13612: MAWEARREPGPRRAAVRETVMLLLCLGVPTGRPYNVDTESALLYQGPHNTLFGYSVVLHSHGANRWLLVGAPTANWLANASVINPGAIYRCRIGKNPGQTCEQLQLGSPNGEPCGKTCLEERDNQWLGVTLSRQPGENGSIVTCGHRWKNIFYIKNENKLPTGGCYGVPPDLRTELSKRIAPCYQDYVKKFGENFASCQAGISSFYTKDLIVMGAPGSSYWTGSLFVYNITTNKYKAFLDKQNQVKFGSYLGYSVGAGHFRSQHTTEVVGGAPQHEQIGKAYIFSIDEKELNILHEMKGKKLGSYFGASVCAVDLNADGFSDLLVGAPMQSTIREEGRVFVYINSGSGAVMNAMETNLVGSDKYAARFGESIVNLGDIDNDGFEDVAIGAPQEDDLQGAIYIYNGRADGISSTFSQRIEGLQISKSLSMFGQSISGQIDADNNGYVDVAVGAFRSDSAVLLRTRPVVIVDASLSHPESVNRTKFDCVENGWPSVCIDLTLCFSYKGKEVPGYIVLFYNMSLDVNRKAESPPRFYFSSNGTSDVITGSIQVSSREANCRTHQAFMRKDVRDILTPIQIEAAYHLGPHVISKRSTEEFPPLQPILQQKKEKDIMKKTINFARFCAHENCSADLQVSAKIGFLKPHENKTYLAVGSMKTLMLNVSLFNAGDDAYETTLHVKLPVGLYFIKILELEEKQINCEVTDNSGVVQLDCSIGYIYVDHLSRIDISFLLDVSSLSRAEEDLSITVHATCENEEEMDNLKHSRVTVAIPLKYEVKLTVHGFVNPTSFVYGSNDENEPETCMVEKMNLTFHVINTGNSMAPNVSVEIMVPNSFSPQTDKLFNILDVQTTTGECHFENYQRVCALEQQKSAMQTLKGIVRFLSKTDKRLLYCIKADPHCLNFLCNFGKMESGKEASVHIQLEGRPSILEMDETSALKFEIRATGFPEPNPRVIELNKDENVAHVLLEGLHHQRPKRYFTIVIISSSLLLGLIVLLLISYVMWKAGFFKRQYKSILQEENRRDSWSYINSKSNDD
UniProt P26010: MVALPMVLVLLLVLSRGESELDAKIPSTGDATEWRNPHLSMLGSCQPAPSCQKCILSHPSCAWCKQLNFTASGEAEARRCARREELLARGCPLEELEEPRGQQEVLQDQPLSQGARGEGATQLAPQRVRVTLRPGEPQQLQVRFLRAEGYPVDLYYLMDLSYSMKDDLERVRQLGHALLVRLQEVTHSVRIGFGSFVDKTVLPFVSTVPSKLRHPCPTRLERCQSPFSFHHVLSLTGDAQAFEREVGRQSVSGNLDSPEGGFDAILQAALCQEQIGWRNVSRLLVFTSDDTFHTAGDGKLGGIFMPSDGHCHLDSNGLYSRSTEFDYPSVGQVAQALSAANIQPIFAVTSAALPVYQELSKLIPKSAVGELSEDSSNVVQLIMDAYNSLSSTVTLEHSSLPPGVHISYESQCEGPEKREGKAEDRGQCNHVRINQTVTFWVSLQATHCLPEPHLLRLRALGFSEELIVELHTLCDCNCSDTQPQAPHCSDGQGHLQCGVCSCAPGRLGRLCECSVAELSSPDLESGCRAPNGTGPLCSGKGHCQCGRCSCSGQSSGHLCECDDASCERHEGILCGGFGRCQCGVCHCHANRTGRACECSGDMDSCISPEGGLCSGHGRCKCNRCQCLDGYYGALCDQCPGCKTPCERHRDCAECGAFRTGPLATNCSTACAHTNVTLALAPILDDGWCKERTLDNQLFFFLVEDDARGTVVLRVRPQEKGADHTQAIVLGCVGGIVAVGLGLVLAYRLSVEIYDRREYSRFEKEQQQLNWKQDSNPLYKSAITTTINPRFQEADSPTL
UniProt P38570: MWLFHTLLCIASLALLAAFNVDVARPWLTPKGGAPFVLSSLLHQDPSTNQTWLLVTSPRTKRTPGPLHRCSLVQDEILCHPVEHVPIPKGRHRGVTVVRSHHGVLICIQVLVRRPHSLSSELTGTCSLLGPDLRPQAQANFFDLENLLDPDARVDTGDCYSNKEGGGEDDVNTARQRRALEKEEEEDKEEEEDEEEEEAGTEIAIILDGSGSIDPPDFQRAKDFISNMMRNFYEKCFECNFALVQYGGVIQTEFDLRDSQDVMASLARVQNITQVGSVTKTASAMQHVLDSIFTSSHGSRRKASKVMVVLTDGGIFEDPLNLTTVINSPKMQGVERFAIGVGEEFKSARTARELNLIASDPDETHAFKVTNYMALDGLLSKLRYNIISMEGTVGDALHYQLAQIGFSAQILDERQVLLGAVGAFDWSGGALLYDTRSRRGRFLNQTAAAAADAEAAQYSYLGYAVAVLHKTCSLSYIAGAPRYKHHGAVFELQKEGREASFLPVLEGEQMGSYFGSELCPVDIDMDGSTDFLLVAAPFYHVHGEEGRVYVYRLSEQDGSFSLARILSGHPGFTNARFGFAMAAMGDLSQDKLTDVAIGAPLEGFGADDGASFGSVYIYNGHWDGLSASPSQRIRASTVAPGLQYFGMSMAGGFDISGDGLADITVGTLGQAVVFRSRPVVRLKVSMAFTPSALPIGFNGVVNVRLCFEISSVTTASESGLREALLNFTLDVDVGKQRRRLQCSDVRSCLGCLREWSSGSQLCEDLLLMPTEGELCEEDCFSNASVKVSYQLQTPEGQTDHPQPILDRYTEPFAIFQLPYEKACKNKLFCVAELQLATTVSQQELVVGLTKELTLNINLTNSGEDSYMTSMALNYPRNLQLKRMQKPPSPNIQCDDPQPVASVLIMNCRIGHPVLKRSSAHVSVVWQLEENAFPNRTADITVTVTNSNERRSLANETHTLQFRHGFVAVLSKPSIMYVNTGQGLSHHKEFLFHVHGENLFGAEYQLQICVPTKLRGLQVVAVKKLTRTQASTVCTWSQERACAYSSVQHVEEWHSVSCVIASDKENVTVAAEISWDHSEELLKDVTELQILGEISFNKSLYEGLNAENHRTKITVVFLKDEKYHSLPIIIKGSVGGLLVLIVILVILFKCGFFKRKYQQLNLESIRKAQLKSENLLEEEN

B1: Fib504K-RF graft (Fib504K graft in the RF acceptor framework), Fab (Fab, V domains shown)
VH: EVQLVESGGGLVQPGGSLRLSCAASGFFITNNYWGWVRQAPGKGLEWVGYISYSGSTSYNPSLKSRFTISRDTSKNTFYLQMNSLRAEDTAVYYCAMTGSSGYFDFWGQGTLVTVSS
VL: DIQMTQSPSSLSASVGDRVTITCRASESVDTYLHWYQQKPGKAPKLLIKYASQSISGVPSRFSGSGSGTDFTLTISSLQPEDFATYYCQQGNSLPNTFGQGTKVEIKR
notes: number not given; also called hu504K-RF graft
B2: Variant hu504.32, IgG (antibody, V domains shown)
VH: B1 VH
VL: B1 VL with T31D, Y32L
notes: methionine at heavy chain position 94; also called hu504.32M; 504.32M
B3: Variant hu504.16, IgG (antibody, name in Kabat numbering, V domains shown)
VH: B1 VH
VL: B1 VL with Y32L
B4: Variant hu504.5, IgG (antibody, name in Kabat numbering, V domains shown)
VH: B1 VH
VL: B1 VL with T31S, Y32L
B5: Variant hu504.16, Fab (Fab, name in Kabat numbering, V domains shown)
VH: B1 VH
VL: B1 VL with Y32L
notes: Clone from the Fib504K-RF library with an HVR-L1 change; Tested as Fab; also called Variant 504.16
B6: Variant hu504.32, Fab (Fab, V domains shown)
VH: B1 VH
VL: B1 VL with T31D, Y32L
notes: T31D and Y32L in the light chain of the hu504 Kgraft; Tested as Fab; also called Variant 504.32; humanized variant 504.32
B7: Variant hu504.5, Fab (Fab, name in Kabat numbering, V domains shown)
VH: B1 VH
VL: B1 VL with T31S, Y32L
notes: Tested as Fab; also called Variant 504.5
B8: Rat Fib504 (antibody FIB504.64 produced by hybridoma ATCC HB-293) (antibody, V domains shown)
VH: EVQLQESGPGLVKPSQSLSLTCSVTGFFITNNYWGWIRKFPGNKMEWMGYISYSGSTSYNPSLKSRISITRDTSKNQFFLQLNSVTTEDTATYYCAMTGSSGYFDFWGPGTMVTVSS
VL: DVVMTQSPATLSVTPGERISLSCRASESVDTYLHWYQQKPNESPRLLIKYASQSISGIPSRFSGSGSGTDFTLSINGVELEDLSIYYCQQGNSLPNTFGAGTKLELKR
notes: Whole rat antibody in the cell adhesion assays; also called rat anti-mouse beta7 antibody

Legend:
[1] = molecular target: T1, Full length human integrin alpha4beta7 (expressed in 293 cells, purified by Fib504 affinity chromatography) (human) (UniProt P13612+P26010); assay: phage binding assay (OD): Fab displayed on phage, immobilised alpha4beta7, albumin as control coat
[2] = molecular target: T1, Full length human integrin alpha4beta7 (expressed in 293 cells, purified by Fib504 affinity chromatography) (human); assay: phage-displayed Fab on immobilized alpha4beta7
[3] = molecular target: alphaEbeta7 on alphaEbeta7-transfected 293 cells (human) (UniProt P38570+P26010); assay: summary of the cell adhesion inhibition assays; alphaEbeta7
[4] = molecular target: T1, Full length human integrin alpha4beta7 (expressed in 293 cells, purified by Fib504 affinity chromatography) (human); assay: SPR (BIAcore), Fab
[5] = molecular target: human alpha4beta7 receptor on RPMI8866 cells (human) (UniProt P13612+P26010); assay: cell adhesion blocking assay: BCECF-labelled RPMI8866 cells (alpha4beta7) adhering to plate-coated human MAdCAM-1-Ig, antibody titrated

Binder | binding [3] | binding [4] | also measured
B1 | – | – | binding [1]: binds; binding [2]: binds
B2 | binds | – | –
B3 | binds | – | –
B4 | binds | – | –
B5 | – | binds | –
B6 | – | binds | –
B7 | – | binds | –
B8 | – | – | binding [5]: binds
